From paper PMC5818551, “Sequences Flanking the Gephyrin-Binding Site of GlyRβ Tune Receptor Stabilization at Synapses” (eNeuro, 2018)

System: cultured rat spinal cord neurons
Experiment: sptPALM diffusion of full-length mEos4b-GlyRβ variants
Type: cell-based
Conditions: for Deff, extrasynaptic (thresholded), Q1 (25% quartile) / Deff, extrasynaptic (thresholded), Q2 (median) / Deff, extrasynaptic (thresholded), Q3 (75% quartile): extrasynaptic trajectories above threshold 0.02 µm^2/s; for Explored area, extrasynaptic (thresholded), Q2 (median): extrasynaptic trajectories above threshold Deff 0.02 µm^2/s; for Deff, synaptic (thresholded), Q1 (25% quartile) / Deff, synaptic (thresholded), Q2 (median) / Deff, synaptic (thresholded), Q3 (75% quartile): synaptic trajectories above threshold 0.02 µm^2/s; for Explored area, synaptic (thresholded), Q2 (median): synaptic trajectories above threshold Deff 0.02 µm^2/s

Substance	Deff, extrasynaptic (thresholded), Q1 (25% quartile)	Deff, extrasynaptic (thresholded), Q2 (median)	Deff, extrasynaptic (thresholded), Q3 (75% quartile)	Explored area, extrasynaptic (thresholded), Q2 (median)	Deff, synaptic (thresholded), Q1 (25% quartile)	Deff, synaptic (thresholded), Q2 (median)	Deff, synaptic (thresholded), Q3 (75% quartile)	Explored area, synaptic (thresholded), Q2 (median)
GlyRβ-D407P/F408G: mEos4b-tagged full-length GlyRβ with substitution D407P and F408G	0.04 µm^2 * s^−1	0.09 µm^2 * s^−1	0.20 µm^2 * s^−1	1.52 10^−3 µm^2	0.03 µm^2 * s^−1	0.04 µm^2 * s^−1	0.09 µm^2 * s^−1	0.86 10^−3 µm^2
GlyRβ-HI: mEos4b-tagged full-length GlyRβ with deletion Δ378–393	0.03 µm^2 * s^−1	0.05 µm^2 * s^−1	0.11 µm^2 * s^−1	0.96 10^−3 µm^2	0.03 µm^2 * s^−1	0.04 µm^2 * s^−1	0.07 µm^2 * s^−1	0.77 10^−3 µm^2
GlyRβ-geph^−: mEos4b-tagged full-length GlyRβ with substitution F398A and I400A	0.05 µm^2 * s^−1	0.11 µm^2 * s^−1	0.22 µm^2 * s^−1	1.83 10^−3 µm^2	0.04 µm^2 * s^−1	0.09 µm^2 * s^−1	0.19 µm^2 * s^−1	1.51 10^−3 µm^2
GlyRβ-wt: mEos4b-tagged full-length human GlyRβ subunit	0.03 µm^2 * s^−1	0.05 µm^2 * s^−1	0.11 µm^2 * s^−1	0.91 10^−3 µm^2	0.03 µm^2 * s^−1	0.04 µm^2 * s^−1	0.06 µm^2 * s^−1	0.73 10^−3 µm^2
